Data as given in PubChem BioAssay AID1259424 (University of Nebraska Medical Center, 2018)
Screen: 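Find knockdowns that reproduce the expression shifts seen after KSR1 loss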 (primary screen). Cells: human HCT116 colon cancer cells. Reagents: siRNA pool against human genes, 50 nM. Read-out: 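Log2 levels of six mRNAs (branched-DNA multiplex), adjusted by two reference genes and the non-targeting median, then scored against the average KSR1 knockdown pattern as Pearson r and euclidean distance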. Direction: mean correlation with KSR1 profile: higher = expression change more like KSR1 knockdown.
This is an unselected part of about 14,000 reagents. 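Higher correlation or smaller distance means closer resemblance to KSR1 loss; control wells, including KSR1 knockdowns, recur on many plates.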 Further read-outs or replicates are left out here. No sequences are given here. The record does not give: the time to read-out.

EMX2 scored mean correlation with KSR1 profile -0.381.
After knock-down of STAG3L4 the results were mean correlation with KSR1 profile 0.735.
Knock-down of PCSK4 resulted in: mean correlation with KSR1 profile 0.452.
With knock-down of ASIC3 the results were mean correlation with KSR1 profile 0.378.
Depletion of TAAR5 came out at: mean correlation with KSR1 profile 0.44.
Against SLU7, the entry reads mean correlation with KSR1 profile -0.341.
LYPLA2 gave mean correlation with KSR1 profile -0.122.
With knock-down of SSTR5, the record shows mean correlation with KSR1 profile 0.506.
After knock-down of GPHRB, the record shows mean correlation with KSR1 profile 0.407.
After knock-down of CDK18, the record shows mean correlation with KSR1 profile 0.249.
After knock-down of MVK the results were mean correlation with KSR1 profile 0.805.
HYAL1 scored mean correlation with KSR1 profile -0.272.
With knock-down of OR1A1, the record shows mean correlation with KSR1 profile 0.297.
RNASE4 gave mean correlation with KSR1 profile 0.685.

Quoted from the entries so far for reference:
STAG3L4 — mean correlation with KSR1 profile = 0.735
PCSK4 — mean correlation with KSR1 profile = 0.452
ASIC3 — mean correlation with KSR1 profile = 0.378
TAAR5 — mean correlation with KSR1 profile = 0.44
SLU7 — mean correlation with KSR1 profile = -0.341
LYPLA2 — mean correlation with KSR1 profile = -0.122

Continued:
Depletion of MYO16 resulted in: mean correlation with KSR1 profile -0.627.
NEK1 scored mean correlation with KSR1 profile 0.0658.
Knock-down of SMAD6 came out at: mean correlation with KSR1 profile 0.394.
Against F10, the entry reads mean correlation with KSR1 profile -0.264.
Depletion of SLC7A11 resulted in: mean correlation with KSR1 profile 0.104.
With knock-down of GLT8D2 the results were mean correlation with KSR1 profile 0.406.
HLA-DRB3 showed mean correlation with KSR1 profile -0.173.
Against CLSTN2 the deposit lists mean correlation with KSR1 profile -0.347.
For FAT2 the deposit lists mean correlation with KSR1 profile 0.0848.
HSPA1B gave mean correlation with KSR1 profile 0.648.
RERG scored mean correlation with KSR1 profile 0.23.
With knock-down of MTFR1, the screen gave mean correlation with KSR1 profile 0.371.
Depletion of LAMTOR2 resulted in: mean correlation with KSR1 profile 0.497.
Silencing of DAZL resulted in: mean correlation with KSR1 profile -0.111.
Knock-down of GOLIM4 gave: mean correlation with KSR1 profile -0.278.
After knock-down of PDLIM2, the record shows mean correlation with KSR1 profile -0.306.
With knock-down of ATG7, the record shows mean correlation with KSR1 profile -0.0283.
With knock-down of B3GAT3, the record shows mean correlation with KSR1 profile -0.697.
For USP40, the entry reads mean correlation with KSR1 profile -0.324.
Silencing of FRRS1L resulted in: mean correlation with KSR1 profile -0.0629.
With knock-down of MRPL40, the record shows mean correlation with KSR1 profile -0.6.
Knock-down of ZNF318 resulted in: mean correlation with KSR1 profile 0.278.
